Laboratory results published in publication PMC12759081.
Results are given in words; binding and its absence hold for the method and conditions named. Binding seen in cells or lysates may run through a third protein. Here binding means that the protein was enriched with, or labelled near, the bait; the list need not be complete. Sequences can lack the tags named with a protein.

Biological target: Flag-Sororin (human), Q96FF9
Assay: affinity purification with mass spectrometry; Flag-Sororin overexpressed in HEK293F cells, precipitated with anti-Flag M2 agarose (4 h, 4 °C), eluted with Flag peptide, eluate analysed by mass spectrometry
Conditions: remark: other sources report otherwise

B1: STAG2, Q8N3U4 1-1231 (protein)
chain: MIAAPEIPTDFNLLQESETHFSSDTDFEDIEGKNQKQGKGKTCKKGKKGPAEKGKGGNGGGKPPSGPNRMNGHHQQNGVENMMLFEVVKMGKSAMQSVVDDWIESYKHDRDIALLDLINFFIQCSGCKGVVTAEMFRHMQNSEIIRKMTEEFDEDSGDYPLTMAGPQWKKFKSSFCEFIGVLVRQCQYSIIYDEYMMDTVISLLTGLSDSQVRAFRHTSTLAAMKLMTALVNVALNLSINMDNTQRQYEAERNKMIGKRANERLELLLQKRKELQENQDEIENMMNAIFKGVFVHRYRDAIAEIRAICIEEIGIWMKMYSDAFLNDSYLKYVGWTMHDKQGEVRLKCLTALQGLYYNKELNSKLELFTSRFKDRIVSMTLDKEYDVAVQAIKLLTLVLQSSEEVLTAEDCENVYHLVYSAHRPVAVAAGEFLYKKLFSRRDPEEDGMMKRRGRQGPNANLVKTLVFFFLESELHEHAAYLVDSMWDCATELLKDWECMNSLLLEEPLSGEEALTDRQESALIEIMLCTIRQAAECHPPVGRGTGKRVLTAKEKKTQLDDRTKITELFAVALPQLLAKYSVDAEKVTNLLQLPQYFDLEIYTTGRLEKHLDALLRQIRNIVEKHTDTDVLEACSKTYHALCNEEFTIFNRVDISRSQLIDELADKFNRLLEDFLQEGEEPDEDDAYQVLSTLKRITAFHNAHDLSKWDLFACNYKLLKTGIENGDMPEQIVIHALQCTHYVILWQLAKITESSSTKEDLLRLKKQMRVFCQICQHYLTNVNTTVKEQAFTILCDILMIFSHQIMSGGRDMLEPLVYTPDSSLQSELLSFILDHVFIEQDDDNNSADGQQEDEASKIEALHKRRNLLAAFCKLIVYTVVEMNTAADIFKQYMKYYNDYGDIIKETMSKTRQIDKIQCAKTLILSLQQLFNEMIQENGYNFDRSSSTFSGIKELARRFALTFGLDQLKTREAIAMLHKDGIEFAFKEPNPQGESHPPLNLAFLDILSEFSSKLLRQDKRTVYVYLEKFMTFQMSLRREDVWLPLMSYRNSLLAGGDDDTMSVISGISSRGSTVRSKKSKPSTGKRKVVEGMQLSLTEESSSSDSMWLSREQTLHTPVMMQTPQLTSTIMREPKRLRPEDSFMSVYPMQTEHHQTPLDYNRRGTSLMEDDEEPIVEDVMMSSEGRIEDLNEGMDFDTMDIDLPPSKNRRERTELKPDFFDPASIMDESVLGVSMF
- binding: binds
